Test results taken from the supplement of paper PMC12823440, “Inhibitors supercharge kinase turnover through native proteolytic circuits” (Nature, 2025).
Structures can show the parent of a compound that is named as a salt. Some of the results follow. The calls rarely recur for the same compound in another form.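 In K562 cells expressing nanoluciferase-fused kinases, luminescence was recorded at 4 h intervals between 2 and 18 h, normalized as percent of control with DMSO at 100% and a positive control at 0%. A significant (2 sigma) signal drop marks a time point as decreased. The authors' rule for a hit is not shown and takes in more than the number of time points.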

By UniProt entry, the sequences of proteins in these tests, tags left out. Where a name states a change or a piece, a line headed by the entry shows the natural chain unless it says otherwise.
UniProt P07949, whole entry, looked up: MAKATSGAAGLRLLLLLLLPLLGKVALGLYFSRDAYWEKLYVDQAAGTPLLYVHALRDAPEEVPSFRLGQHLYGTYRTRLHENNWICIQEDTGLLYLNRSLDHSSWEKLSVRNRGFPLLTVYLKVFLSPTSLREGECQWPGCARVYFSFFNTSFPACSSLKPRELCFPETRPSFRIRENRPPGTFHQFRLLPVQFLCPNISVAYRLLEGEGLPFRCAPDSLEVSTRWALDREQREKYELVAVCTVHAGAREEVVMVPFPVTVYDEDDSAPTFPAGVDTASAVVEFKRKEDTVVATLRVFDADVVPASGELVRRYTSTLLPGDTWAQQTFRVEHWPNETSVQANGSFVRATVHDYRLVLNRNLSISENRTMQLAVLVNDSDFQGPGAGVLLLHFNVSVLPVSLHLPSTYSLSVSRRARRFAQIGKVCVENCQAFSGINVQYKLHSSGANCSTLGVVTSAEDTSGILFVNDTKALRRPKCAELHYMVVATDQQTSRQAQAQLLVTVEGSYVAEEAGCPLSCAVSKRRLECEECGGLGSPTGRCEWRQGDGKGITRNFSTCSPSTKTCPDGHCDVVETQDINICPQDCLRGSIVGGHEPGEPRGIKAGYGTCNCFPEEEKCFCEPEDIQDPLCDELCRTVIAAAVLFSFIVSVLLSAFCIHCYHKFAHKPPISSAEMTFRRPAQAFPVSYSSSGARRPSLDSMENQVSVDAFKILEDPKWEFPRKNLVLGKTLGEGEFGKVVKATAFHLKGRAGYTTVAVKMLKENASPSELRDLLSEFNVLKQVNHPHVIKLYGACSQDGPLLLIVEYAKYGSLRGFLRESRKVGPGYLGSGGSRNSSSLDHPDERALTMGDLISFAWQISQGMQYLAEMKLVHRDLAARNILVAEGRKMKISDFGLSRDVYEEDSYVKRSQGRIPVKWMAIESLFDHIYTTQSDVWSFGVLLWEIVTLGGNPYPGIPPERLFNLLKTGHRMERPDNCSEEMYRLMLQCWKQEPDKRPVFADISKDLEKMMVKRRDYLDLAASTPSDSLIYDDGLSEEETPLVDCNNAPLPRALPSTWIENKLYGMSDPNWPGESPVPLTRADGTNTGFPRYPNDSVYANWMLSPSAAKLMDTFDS
UniProt P07949, whole entry M918T, looked up: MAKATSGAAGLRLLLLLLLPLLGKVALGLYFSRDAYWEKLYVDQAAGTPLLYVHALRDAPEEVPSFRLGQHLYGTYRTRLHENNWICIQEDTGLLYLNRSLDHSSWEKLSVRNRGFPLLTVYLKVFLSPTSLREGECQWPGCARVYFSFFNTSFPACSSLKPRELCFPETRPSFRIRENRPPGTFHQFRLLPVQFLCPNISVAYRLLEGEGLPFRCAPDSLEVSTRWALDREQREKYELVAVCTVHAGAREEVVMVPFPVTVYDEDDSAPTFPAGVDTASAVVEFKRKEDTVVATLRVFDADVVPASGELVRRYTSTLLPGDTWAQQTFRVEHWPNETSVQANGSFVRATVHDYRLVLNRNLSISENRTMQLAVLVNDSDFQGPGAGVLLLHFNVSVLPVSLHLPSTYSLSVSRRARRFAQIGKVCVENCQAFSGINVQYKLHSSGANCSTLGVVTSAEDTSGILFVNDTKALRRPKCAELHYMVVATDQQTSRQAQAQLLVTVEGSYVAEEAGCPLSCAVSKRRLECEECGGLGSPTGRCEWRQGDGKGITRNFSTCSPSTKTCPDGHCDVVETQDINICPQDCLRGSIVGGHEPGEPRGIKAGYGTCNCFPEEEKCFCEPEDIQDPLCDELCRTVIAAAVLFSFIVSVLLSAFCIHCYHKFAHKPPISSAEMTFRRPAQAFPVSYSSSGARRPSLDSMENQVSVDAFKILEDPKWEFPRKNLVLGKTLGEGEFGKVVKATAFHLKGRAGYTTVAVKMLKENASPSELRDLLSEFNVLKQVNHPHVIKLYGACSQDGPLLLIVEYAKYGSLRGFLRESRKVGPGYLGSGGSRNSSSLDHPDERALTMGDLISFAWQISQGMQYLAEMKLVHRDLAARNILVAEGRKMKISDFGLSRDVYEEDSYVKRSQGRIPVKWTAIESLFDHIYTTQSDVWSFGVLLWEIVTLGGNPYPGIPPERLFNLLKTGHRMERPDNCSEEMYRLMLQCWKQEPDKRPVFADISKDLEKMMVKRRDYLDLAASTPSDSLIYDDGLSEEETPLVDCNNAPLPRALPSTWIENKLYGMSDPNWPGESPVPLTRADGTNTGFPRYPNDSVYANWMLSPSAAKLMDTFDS
UniProt Q9BRS2: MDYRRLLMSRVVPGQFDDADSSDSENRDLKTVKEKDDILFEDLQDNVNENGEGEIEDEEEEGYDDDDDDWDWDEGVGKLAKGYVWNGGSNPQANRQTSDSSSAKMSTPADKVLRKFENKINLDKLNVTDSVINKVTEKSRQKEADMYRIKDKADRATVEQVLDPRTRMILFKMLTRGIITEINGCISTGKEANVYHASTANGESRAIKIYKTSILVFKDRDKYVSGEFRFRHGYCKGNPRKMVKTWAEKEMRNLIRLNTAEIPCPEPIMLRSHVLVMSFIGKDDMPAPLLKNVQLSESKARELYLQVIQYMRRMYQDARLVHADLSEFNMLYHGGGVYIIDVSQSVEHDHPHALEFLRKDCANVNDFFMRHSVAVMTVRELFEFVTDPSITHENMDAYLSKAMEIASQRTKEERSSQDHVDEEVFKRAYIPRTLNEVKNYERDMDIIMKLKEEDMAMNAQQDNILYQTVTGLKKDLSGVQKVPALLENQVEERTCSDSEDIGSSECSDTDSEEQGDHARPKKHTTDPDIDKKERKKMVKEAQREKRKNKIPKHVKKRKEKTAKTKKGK
UniProt Q13546: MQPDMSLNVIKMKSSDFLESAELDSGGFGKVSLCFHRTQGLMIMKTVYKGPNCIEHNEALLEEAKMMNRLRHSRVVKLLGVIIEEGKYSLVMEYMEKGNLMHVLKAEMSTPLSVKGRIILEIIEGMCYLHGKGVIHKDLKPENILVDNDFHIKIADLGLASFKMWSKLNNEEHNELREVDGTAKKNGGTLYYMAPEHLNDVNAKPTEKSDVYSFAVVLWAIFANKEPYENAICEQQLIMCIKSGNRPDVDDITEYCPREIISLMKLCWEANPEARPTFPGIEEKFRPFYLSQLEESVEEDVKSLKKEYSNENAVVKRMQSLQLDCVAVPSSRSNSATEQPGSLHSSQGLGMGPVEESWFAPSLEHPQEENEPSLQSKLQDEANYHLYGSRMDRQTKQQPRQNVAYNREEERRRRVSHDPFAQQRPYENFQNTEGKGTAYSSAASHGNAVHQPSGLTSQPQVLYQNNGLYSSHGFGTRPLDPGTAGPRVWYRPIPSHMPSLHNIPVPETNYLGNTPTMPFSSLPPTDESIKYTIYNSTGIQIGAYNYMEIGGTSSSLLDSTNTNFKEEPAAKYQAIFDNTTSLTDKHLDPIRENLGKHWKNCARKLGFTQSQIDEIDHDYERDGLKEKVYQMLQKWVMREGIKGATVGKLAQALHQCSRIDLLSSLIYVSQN
UniProt Q01974, whole entry: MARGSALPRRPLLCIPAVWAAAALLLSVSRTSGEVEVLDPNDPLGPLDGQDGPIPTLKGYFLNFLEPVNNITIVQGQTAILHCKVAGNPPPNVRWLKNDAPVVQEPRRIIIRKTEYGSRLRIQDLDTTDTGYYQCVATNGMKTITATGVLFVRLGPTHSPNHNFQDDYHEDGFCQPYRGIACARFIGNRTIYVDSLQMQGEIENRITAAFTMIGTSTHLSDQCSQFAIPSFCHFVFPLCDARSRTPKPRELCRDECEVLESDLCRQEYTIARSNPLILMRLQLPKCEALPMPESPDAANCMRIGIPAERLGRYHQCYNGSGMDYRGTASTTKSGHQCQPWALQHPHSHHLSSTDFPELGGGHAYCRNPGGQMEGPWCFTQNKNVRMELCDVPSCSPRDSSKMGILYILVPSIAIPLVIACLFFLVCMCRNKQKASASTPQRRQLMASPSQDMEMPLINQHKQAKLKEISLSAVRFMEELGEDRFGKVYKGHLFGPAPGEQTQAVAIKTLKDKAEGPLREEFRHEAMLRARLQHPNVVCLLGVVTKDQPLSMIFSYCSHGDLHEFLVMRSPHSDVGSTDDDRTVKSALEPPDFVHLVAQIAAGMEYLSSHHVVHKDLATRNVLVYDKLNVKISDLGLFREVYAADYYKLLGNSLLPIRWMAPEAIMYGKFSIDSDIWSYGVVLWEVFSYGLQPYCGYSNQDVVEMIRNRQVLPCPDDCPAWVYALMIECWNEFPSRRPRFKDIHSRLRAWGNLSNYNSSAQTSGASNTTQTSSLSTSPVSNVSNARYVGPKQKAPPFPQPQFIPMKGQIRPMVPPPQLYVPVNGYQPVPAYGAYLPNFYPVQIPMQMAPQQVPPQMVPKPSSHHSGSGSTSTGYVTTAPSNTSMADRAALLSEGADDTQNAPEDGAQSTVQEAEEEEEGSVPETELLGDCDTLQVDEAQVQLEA
UniProt Q15418, whole entry: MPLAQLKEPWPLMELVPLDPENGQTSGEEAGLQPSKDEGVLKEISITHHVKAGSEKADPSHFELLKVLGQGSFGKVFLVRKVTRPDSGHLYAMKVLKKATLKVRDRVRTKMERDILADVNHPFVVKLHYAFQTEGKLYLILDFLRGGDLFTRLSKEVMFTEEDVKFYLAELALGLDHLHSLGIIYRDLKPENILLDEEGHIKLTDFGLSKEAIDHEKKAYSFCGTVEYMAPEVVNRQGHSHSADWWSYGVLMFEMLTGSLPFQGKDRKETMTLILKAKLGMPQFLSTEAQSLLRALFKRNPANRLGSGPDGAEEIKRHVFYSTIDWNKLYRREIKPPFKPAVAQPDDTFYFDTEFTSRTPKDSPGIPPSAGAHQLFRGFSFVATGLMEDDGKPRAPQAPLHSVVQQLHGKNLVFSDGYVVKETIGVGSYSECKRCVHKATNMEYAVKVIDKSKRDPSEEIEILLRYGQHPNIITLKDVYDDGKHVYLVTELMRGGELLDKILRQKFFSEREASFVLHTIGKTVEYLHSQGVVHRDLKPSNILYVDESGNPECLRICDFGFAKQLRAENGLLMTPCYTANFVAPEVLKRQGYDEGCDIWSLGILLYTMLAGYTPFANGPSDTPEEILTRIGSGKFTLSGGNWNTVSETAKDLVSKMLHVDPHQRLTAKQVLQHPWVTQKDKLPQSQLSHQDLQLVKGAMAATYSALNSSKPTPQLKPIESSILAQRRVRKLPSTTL
UniProt Q9NYA1, whole entry: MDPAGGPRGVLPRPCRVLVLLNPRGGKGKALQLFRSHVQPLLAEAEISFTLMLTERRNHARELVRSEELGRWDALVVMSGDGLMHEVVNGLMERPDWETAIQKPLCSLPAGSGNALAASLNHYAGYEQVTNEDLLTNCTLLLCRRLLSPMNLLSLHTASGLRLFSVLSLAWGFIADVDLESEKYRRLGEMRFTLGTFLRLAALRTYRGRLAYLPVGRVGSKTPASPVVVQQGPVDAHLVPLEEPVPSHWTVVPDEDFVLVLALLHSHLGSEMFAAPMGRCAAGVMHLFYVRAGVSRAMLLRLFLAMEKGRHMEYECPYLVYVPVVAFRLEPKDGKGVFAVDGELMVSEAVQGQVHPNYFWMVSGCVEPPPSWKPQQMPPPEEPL
UniProt Q9Y6E0: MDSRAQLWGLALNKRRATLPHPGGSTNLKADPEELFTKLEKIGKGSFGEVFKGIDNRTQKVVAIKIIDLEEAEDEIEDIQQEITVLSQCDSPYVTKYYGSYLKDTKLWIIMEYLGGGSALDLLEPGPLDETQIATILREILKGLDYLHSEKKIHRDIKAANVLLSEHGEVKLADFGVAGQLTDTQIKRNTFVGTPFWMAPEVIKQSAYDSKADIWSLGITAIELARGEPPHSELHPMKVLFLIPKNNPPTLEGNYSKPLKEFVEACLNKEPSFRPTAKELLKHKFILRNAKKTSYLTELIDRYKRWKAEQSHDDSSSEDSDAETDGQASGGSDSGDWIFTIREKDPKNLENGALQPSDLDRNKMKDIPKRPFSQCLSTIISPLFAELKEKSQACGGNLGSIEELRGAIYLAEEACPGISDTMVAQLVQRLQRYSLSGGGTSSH

Experiments:
Test in all cases: kinase-Nluc reporter destabilization hit call (1 = scored as downregulated) (binary); higher = compound decreases kinase abundance
Conditions in all cases: K562; 2-18 h
[1] = biological target: RET (UniProt P07949)
[2] = biological target: RET_M918T (clone: RET_mut) (UniProt P07949)
[3] = biological target: RIOK1 (UniProt Q9BRS2)
[4] = biological target: RIPK1 (UniProt Q13546)
[5] = biological target: RIPK2 (UniProt O43353)
[6] = biological target: ROR2 (UniProt Q01974)
[7] = biological target: RPS6KA1 (UniProt Q15418)
[8] = biological target: SPHK1 (UniProt Q9NYA1)
[9] = biological target: SRC (UniProt P12931)
[10] = biological target: STK24 (UniProt Q9Y6E0)

Measured: kinase-Nluc reporter destabilization hit call

Nc1cc(C(F)(F)F)c(-c2nc(N3CCOCC3)nc(N3CCOCC3)n2)cn1 [Bimiralisib] (10 µM)
inactive: [1] 0 | [2] 0 | [3] 0 | [4] 0 | [5] 0 | [6] 0 | [7] 0 | [8] 0 | [9] 0 | [10] 0

COc1ccccc1/C=C1\C(=O)Nc2ccccc21 (10 µM)
inactive: [1] 0 | [2] 0 | [3] 0 | [4] 0 | [5] 0 | [6] 0 | [7] 0 | [8] 0 | [9] 0 | [10] 0

CC1(N)CCN(c2cnc3c(-c4cccc(Cl)c4Cl)[nH]nc3n2)CC1 (2.5 µM)
inactive: [1] 0 | [2] 0 | [3] 0 | [4] 0 | [5] 0 | [6] 0 | [7] 0 | [8] 0 | [9] 0 | [10] 0

O=C(O)c1ccc(N2N=C(Cc3ccccc3)C(=Cc3ccc(-c4ccccc4F)o3)C2=O)cc1 (10 µM)
inactive: [1] 0 | [2] 0 | [3] 0 | [4] 0 | [5] 0 | [6] 0 | [7] 0 | [8] 0 | [9] 0 | [10] 0

CN1CC[C@H](c2c(O)cc(O)c3c(=O)cc(-c4ccc(C(F)(F)F)cc4Cl)oc23)[C@H]1CO [(2S,3R)-Voruciclib (hydrochloride)] (2.5 µM)
inactive: [1] 0 | [2] 0 | [3] 0 | [4] 0 | [5] 0 | [6] 0 | [7] 0 | [8] 0 | [9] 0 | [10] 0

COc1cc(N2CCC(O)CC2)ccc1Nc1cc(Nc2ccccc2S(=O)(=O)C(C)C)c2cc[nH]c2n1 (10 µM)
inactive: [1] 0 | [2] 0 | [3] 0 | [4] 0 | [5] 0 | [6] 0 | [7] 0 | [8] 0 | [9] 0 | [10] 0

C=CC(=O)Nc1cccc(-n2c(=O)cc(C)c3cnc(Nc4ccc(OCCN(C)C)cc4OC)nc32)c1 (10 µM)
inactive: [1] 0 | [2] 0 | [3] 0 | [4] 0 | [5] 0 | [6] 0 | [7] 0 | [8] 0 | [9] 0 | [10] 0

Nc1cccc(S(=O)(=O)N2CCCN(S(=O)(=O)c3ccc4c(c3)OCCO4)CC2)c1 (10 µM)
inactive: [1] 0 | [2] 0 | [3] 0 | [4] 0 | [5] 0 | [6] 0 | [7] 0 | [8] 0 | [9] 0 | [10] 0

CC(C)(C)C(=O)N1N=CC[C@H]1c1ccccc1 (10 µM)
inactive: [1] 0 | [2] 0 | [3] 0 | [4] 0 | [5] 0 | [6] 0 | [7] 0 | [8] 0 | [9] 0 | [10] 0

N#Cc1ccc(-c2c(-c3ncn[nH]3)sc(N3CCOCC3)c2C#N)c(F)c1 (10 µM)
inactive: [1] 0 | [2] 0 | [3] 0 | [4] 0 | [5] 0 | [6] 0 | [7] 0 | [8] 0 | [9] 0 | [10] 0

O=[N+]([O-])c1ccc(Sc2cccc[n+]2[O-])c2nonc12 (2.5 µM)
inactive: [1] 0 | [2] 0 | [3] 0 | [4] 0 | [5] 0 | [6] 0 | [7] 0 | [8] 0 | [9] 0 | [10] 0

CCN(C)C(=O)c1ccc2c(C(=Nc3ccc(CN4CCCCC4)cc3)c3ccccc3)c(O)[nH]c2c1 (2.5 µM)
inactive: [1] 0 | [2] 0 | [3] 0 | [4] 0 | [5] 0 | [6] 0 | [7] 0 | [8] 0 | [9] 0 | [10] 0

C[C@@H]1CCc2ncc(F)cc2[C@H]2CCCN2c2ccn3ncc(c3n2)C(=O)N1 [Selitrectinib] (10 µM)
inactive: [1] 0 | [2] 0 | [3] 0 | [4] 0 | [5] 0 | [6] 0 | [7] 0 | [8] 0 | [9] 0 | [10] 0

O=C1NC(=O)C(c2cnc3ccccn23)=C1c1cn2c3c(cc(F)cc13)CN(C(=O)N1CCCCC1)CC2 (2.5 µM)
inactive: [1] 0 | [2] 0 | [3] 0 | [4] 0 | [5] 0 | [6] 0 | [7] 0 | [8] 0 | [9] 0 | [10] 0

Of the compounds above, these have a CF3 group.
Nc1cc(C(F)(F)F)c(-c2nc(N3CCOCC3)nc(N3CCOCC3)n2)cn1 [Bimiralisib] (10 µM)
inactive: [1] 0 | [2] 0 | [3] 0 | [4] 0 | [5] 0 | [6] 0 | [7] 0 | [8] 0 | [9] 0 | [10] 0

CN1CC[C@H](c2c(O)cc(O)c3c(=O)cc(-c4ccc(C(F)(F)F)cc4Cl)oc23)[C@H]1CO [(2S,3R)-Voruciclib (hydrochloride)] (2.5 µM)
inactive: [1] 0 | [2] 0 | [3] 0 | [4] 0 | [5] 0 | [6] 0 | [7] 0 | [8] 0 | [9] 0 | [10] 0

The list continues.

COc1ccc(CCNc2ncc3c(=O)n(-c4cccc(F)c4)c(=O)[nH]c3n2)cc1OC (2 µM)
inactive: [1] 0 | [2] 0 | [3] 0 | [4] 0 | [5] 0 | [6] 0 | [7] 0 | [8] 0 | [9] 0 | [10] 0

CCCCNC(=N)NC(=N)N [Buformin (hydrochloride)] (2.5 µM)
inactive: [1] 0 | [2] 0 | [3] 0 | [4] 0 | [5] 0 | [6] 0 | [7] 0 | [8] 0 | [9] 0 | [10] 0

CC(=O)NCCc1c[nH]c2ccc(O)cc12 [N-Acetyl-5-hydroxytryptamine] (10 µM)
inactive: [1] 0 | [2] 0 | [3] 0 | [4] 0 | [5] 0 | [6] 0 | [7] 0 | [8] 0 | [9] 0 | [10] 0

COc1cc2ncnc(Nc3ccc(NC(=O)c4ccccc4)cc3)c2cc1OC [Aurora kinase inhibitor-2] (2.5 µM)
inactive: [1] 0 | [2] 0 | [3] 0 | [4] 0 | [5] 0 | [6] 0 | [7] 0 | [8] 0 | [9] 0 | [10] 0

CN(C)Cc1cccc(N=C(c2ccccc2)c2c(O)[nH]c3cc(C(=O)N(C)C)ccc23)c1 (10 µM)
inactive: [1] 0 | [2] 0 | [3] 0 | [4] 0 | [5] 0 | [6] 0 | [7] 0 | [8] 0 | [9] 0 | [10] 0

CCOC(=O)c1c2c3c(cccc3[nH]c1=O)C(=O)c1ccccc1-2 (10 µM)
inactive: [1] 0 | [2] 0 | [3] 0 | [4] 0 | [5] 0 | [6] 0 | [7] 0 | [8] 0 | [9] 0 | [10] 0

O=C(Nc1ccc(Cl)cc1)C1CCCN(C(=O)c2cccc(-c3ccco3)c2)C1 (stereo not given) (2.5 µM)
inactive: [1] 0 | [2] 0 | [3] 0 | [4] 0 | [5] 0 | [6] 0 | [7] 0 | [8] 0 | [9] 0 | [10] 0

O=S(=O)(c1cccc2cnccc12)N1CCNCC1 (10 µM)
inactive: [1] 0 | [2] 0 | [3] 0 | [4] 0 | [5] 0 | [6] 0 | [7] 0 | [8] 0 | [9] 0 | [10] 0

Nc1n[nH]c2cc(-c3ccc(=O)n(Cc4cccc(Cl)c4)c3)ccc12 (10 µM)
inactive: [1] 0 | [2] 0 | [3] 0 | [4] 0 | [5] 0 | [6] 0 | [7] 0 | [8] 0 | [9] 0 | [10] 0

CCCNC(=O)c1cn2ncnc(Nc3cc(C(=O)NC4CC4)ccc3C)c2c1C (10 µM)
inactive: [1] 0 | [2] 0 | [3] 0 | [4] 0 | [5] 0 | [6] 0 | [7] 0 | [8] 0 | [9] 0 | [10] 0

CC(C)(O)[C@@H]1CC[C@](C)([C@H]2[C@@H](O)C[C@@]3(C)[C@@H]4C[C@H](O[C@@H]5O[C@H](CO)[C@@H](O)[C@H](O)[C@H]5O)[C@H]5C(C)(C)[C@@H](O[C@@H]6OC[C@@H](O)[C@H](O)[C@H]6O[C@@H]6O[C@H](CO)[C@@H](O)[C@H](O)[C@H]6O)CC[C@@]56C[C@@]46CC[C@]23C)O1 [Astragaloside VI] (10 µM)
inactive: [1] 0 | [2] 0 | [3] 0 | [4] 0 | [5] 0 | [6] 0 | [7] 0 | [8] 0 | [9] 0 | [10] 0

COc1ccc2c(c1OC)OC1c3ccc(O)cc3OCC21 (stereo not given) [Methylnissolin] (10 µM)
inactive: [1] 0 | [2] 0 | [3] 0 | [4] 0 | [5] 0 | [6] 0 | [7] 0 | [8] 0 | [9] 0 | [10] 0

COc1cc(C(=O)N2CCC(N3CCN(C)CC3)CC2)ccc1Nc1ncc2c(n1)N(C)c1ccccc1C(=O)N2C (10 µM)
inactive: [1] 0 | [2] 0 | [3] 0 | [4] 0 | [5] 0 | [6] 0 | [7] 0 | [8] 0 | [9] 0 | [10] 0

CSc1ccc(CN2CCCC(Nc3ccc4[nH]ncc4c3)C2)cc1 (stereo not given) [Rho-Kinase-IN-1] (10 µM)
inactive: [1] 0 | [2] 0 | [3] 0 | [4] 0 | [5] 0 | [6] 0 | [7] 0 | [8] 0 | [9] 0 | [10] 0

O=C1NC(=O)C(c2cn(-c3ccccc3)nc2-c2ccc(F)cc2)N1 (stereo not given) (10 µM)
inactive: [1] 0 | [2] 0 | [3] 0 | [4] 0 | [5] 0 | [6] 0 | [7] 0 | [8] 0 | [9] 0 | [10] 0
